Measurements: article PMC7819943, “Rice protein-binding microarrays: a tool to detect cis-acting elements near promoter regions in rice”
This is one part of the list.

By UniProt entry, the sequences of proteins in these tests, tags left out.
UniProt Q0JBA9, entry or part of it: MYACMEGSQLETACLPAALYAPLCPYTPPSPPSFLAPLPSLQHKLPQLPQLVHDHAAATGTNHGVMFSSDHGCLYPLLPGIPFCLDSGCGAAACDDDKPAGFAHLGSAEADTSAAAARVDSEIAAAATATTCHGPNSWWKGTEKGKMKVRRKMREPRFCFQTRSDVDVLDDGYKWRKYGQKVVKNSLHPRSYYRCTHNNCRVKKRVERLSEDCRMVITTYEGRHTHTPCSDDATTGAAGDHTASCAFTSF

These sequences were tested against OsWRKY34 (Oryza sativa, UniProt Q0JBA9 1-250) (assay: protein-binding microarray (RPBM); PBS, 2% BSA, 51.3 ng/ul salmon testes DNA, 50 uM zinc acetate, 200 nM TF, 25 C, 1 h; high values mean tight binding). Details: protein: recombinant; tags: N-terminal polyhistidine and DsRed monomer fusion (pET32a); label: CyDye5-dUTP incorporated in the synthesized complementary strand; 3' TTTTT single-stranded linker to array surface; dsDNA, one strand shown.
Outline: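 Polyhistidine-tagged DsRed fusions of transcription factors, joined at the N-terminus, were expressed in E. coli BL21-CodonPlus and isolated on Ni–NTA. They were incubated at 200 nM for 1 h at 25 °C on a custom Agilent array, double-stranded and BSA-blocked, in PBS with 2% BSA, salmon testes DNA and 50 µM zinc acetate. The binding signal is per-feature fluorescence intensity (arbitrary units) read on an Axon 4000B scanner after washing.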

| Sequence | binding signal |
| --- | --- |
| ATCACACGCGTCTACCGCCAGTTGGCTCTCCATGTCTATACGGAGTCACCTAGTGCAG | 11200 fluorescence intensity (a.u.) |
| TCTCCAAACTATCTACCTCTACTCCTCTTCTCTTCATTTTCGGAGTCACCTAGTGCAG | 12500 fluorescence intensity (a.u.) |
| AAGTTGTGTTGGTTAGTAACTTAGAGTGTGGTTGGGCGAACGGAGTCACCTAGTGCAG | 8810 fluorescence intensity (a.u.) |
| ACCAACCCTTCGTCCCAAGTGCCAACTGCGCCTGTCCGATCGGAGTCACCTAGTGCAG | 8710 fluorescence intensity (a.u.) |
| CAGATCATCACCTCTCCACCCGTTTCTTTCTCGGCCCATCCGGAGTCACCTAGTGCAG | 8210 fluorescence intensity (a.u.) |
| GCCCCGGACAATGGAGGATGGATATTTGCTACTAGTACCGCGGAGTCACCTAGTGCAG | 8320 fluorescence intensity (a.u.) |
| TTCTTCGATTGTTCAGGAGTTAGTGTTTGTCTGCTTTTTTCGGAGTCACCTAGTGCAG | 11100 fluorescence intensity (a.u.) |
| TCCACCTCACCTTGCACCACCTGCTCCGCCGCCGCCGCCGCGGAGTCACCTAGTGCAG | 9040 fluorescence intensity (a.u.) |
| CGCACATATGGTAAGCATCCTCGTCTCCTCCTGCTCGTTCCGGAGTCACCTAGTGCAG | 13100 fluorescence intensity (a.u.) |
| TACTGCCCATCTCCGCCATAGCGTCGTACGTACTACACGCCGGAGTCACCTAGTGCAG | 8080 fluorescence intensity (a.u.) |
| ACAACTGCGCGTCTTCACTACCGGTTTGCTTCTGTTGCCGCGGAGTCACCTAGTGCAG | 8560 fluorescence intensity (a.u.) |
| ATGCCGGGGAGCTCGCCTACTCGCCATCGTCTGCCGCACCCGGAGTCACCTAGTGCAG | 8110 fluorescence intensity (a.u.) |
| AACAGGCCATATATCGATCCGCGCGGGCCCACCTACCTTCCGGAGTCACCTAGTGCAG | 9790 fluorescence intensity (a.u.) |
| TCTCACTGTTGGCACTTTCACAATCACATCCGCGCGCATTCGGAGTCACCTAGTGCAG | 10200 fluorescence intensity (a.u.) |
| ACTCACTCGCTCACACCTTCCATTAGATTTACATTTTGGTCGGAGTCACCTAGTGCAG | 9740 fluorescence intensity (a.u.) |
| AGTTGCTTATTGCTTCCTCTTTGCCTCCTCACTCCATGACCGGAGTCACCTAGTGCAG | 8100 fluorescence intensity (a.u.) |
| ATTTTTTACCTAGCCTCTGCATCATGAATACATTTACTTTCGGAGTCACCTAGTGCAG | 9020 fluorescence intensity (a.u.) |
| GAGTACCTCTCGTTGTCTCCTCCGCTCCTTGCCTCGTTGCCGGAGTCACCTAGTGCAG | 10100 fluorescence intensity (a.u.) |
| TCTCCCACGTCCGCGCGCCGCCGCCTCCCTCCTCGCCACCCGGAGTCACCTAGTGCAG | 8320 fluorescence intensity (a.u.) |
| GGTTATCCTTCGTCTGTGGTTATCCGGGCTTAGGGTTCAGCGGAGTCACCTAGTGCAG | 8750 fluorescence intensity (a.u.) |
| CACACACACAAATCCACAAGTAGACATCCTTCCATGTCTTCGGAGTCACCTAGTGCAG | 8380 fluorescence intensity (a.u.) |

| Sequence | binding signal |
| --- | --- |
| CTGCAGTATCCTCCACTCCACTTTGGCACCATTGTCCCACCGGAGTCACCTAGTGCAG | 11300 fluorescence intensity (a.u.) |
| CTCCACGCATTGCTTCTTGATTCTTGATTCTTGCTGCTTCCGGAGTCACCTAGTGCAG | 9130 fluorescence intensity (a.u.) |
| CTCCACTTCGATCGACCGTTTCGTCGCGGCCACGAAATCGCGGAGTCACCTAGTGCAG | 8860 fluorescence intensity (a.u.) |
| GGCAGGTTGCAGTTGTCGCTTGCGGGGAGGACGGGGAATGCGGAGTCACCTAGTGCAG | 12100 fluorescence intensity (a.u.) |
| TCGGCTATCCTGCACTGCATCTTCATCTCGAAAATTTTCACGGAGTCACCTAGTGCAG | 14700 fluorescence intensity (a.u.) |
| GTTTACCATTGCATTCCCCGGTCCACGTGCATCAGTGCATCGGAGTCACCTAGTGCAG | 9610 fluorescence intensity (a.u.) |
| GGTGCGACGGCTTGGTTGATTGGGTGACGGGTGGGATTTGCGGAGTCACCTAGTGCAG | 10500 fluorescence intensity (a.u.) |
| CTTCCCCACCCAGCTGCGCGCCATTTTGTTCCACCGCGTCCGGAGTCACCTAGTGCAG | 8980 fluorescence intensity (a.u.) |
| TGGCCGTCTCGTCTCCGCTCCTCGCGCCCTGCGCCGATCTCGGAGTCACCTAGTGCAG | 9560 fluorescence intensity (a.u.) |
| TCTTGCTGCTTGCTTGGTGGTGGTGGTAGCTTTCATAATGCGGAGTCACCTAGTGCAG | 8170 fluorescence intensity (a.u.) |
| CAGCATCACTAATTTGTCTGAATTCTATATTCCATGCTCGCGGAGTCACCTAGTGCAG | 8960 fluorescence intensity (a.u.) |
| ACCTACACTTATATATCTGTTCATCTTGTGATAACGCTTCCGGAGTCACCTAGTGCAG | 8710 fluorescence intensity (a.u.) |
| ACATATGAAATTGCGCAACAACCAACTTCAATACATTTTTCGGAGTCACCTAGTGCAG | 9030 fluorescence intensity (a.u.) |
| GATGTACCGAGTATACACGACAAGCGCTCACAGCCCAAACCGGAGTCACCTAGTGCAG | 8500 fluorescence intensity (a.u.) |
| TAAATTGTTCGTTACCGTATCCACGCAGGTTTGTTTTTGCCGGAGTCACCTAGTGCAG | 10600 fluorescence intensity (a.u.) |
| TTTGCTTGACTGGATCCAGCCGTTCGTTTTTTCCTTCTTTCGGAGTCACCTAGTGCAG | 10800 fluorescence intensity (a.u.) |
| ACTATTTCCTTGGCTCACCAGTAACTAAACACACCCATCACGGAGTCACCTAGTGCAG | 8430 fluorescence intensity (a.u.) |
| AGGCTGGGGTTAGTGTGGAAGGGGAGGATTGGAACTTTGCCGGAGTCACCTAGTGCAG | 9600 fluorescence intensity (a.u.) |
| GGTACCCCTTCTTGCCGCTGCGCGCCCACAGGTCGTCGGCCGGAGTCACCTAGTGCAG | 8100 fluorescence intensity (a.u.) |
| GGGTGGAGGAGGGGACTTCGGGAGGGCGGTGGCGAGGGCGCGGAGTCACCTAGTGCAG | 16400 fluorescence intensity (a.u.) |
| CTGGCTGACCGGCAAGTCACCTATCGTTGTCTCATCTTCTCGGAGTCACCTAGTGCAG | 8160 fluorescence intensity (a.u.) |

A few values from above.
Under binding signal, ACTATTTCCTTGGCTCACCAGTAACTAAACACACCCATCACGGAGTCACCTAGTGCAG is listed with 8430 fluorescence intensity (a.u.)
Under binding signal, GGGTGGAGGAGGGGACTTCGGGAGGGCGGTGGCGAGGGCGCGGAGTCACCTAGTGCAG is listed with 16400 fluorescence intensity (a.u.)
Under binding signal, TCTTGCTGCTTGCTTGGTGGTGGTGGTAGCTTTCATAATGCGGAGTCACCTAGTGCAG is listed with 8170 fluorescence intensity (a.u.)
